Assay results: PubChem BioAssay AID624297 (National Center for Advancing Translational Sciences (NCATS), 2012)
About 6,200 (1.8%) of roughly 340,000 compounds were called active. The shares of active, inactive and inconclusive entries below differ from those in the screen. The call rests on the fitted dose curve; in most records, active means well fitted activation curve with a large enough effect; inconclusive means small, poorly fitted or top-dose-only effect; inactive means no such curve, though single readings can be large or run the other way. A potency beside an inconclusive call is a rough fit, not a confirmed value.

Experiment: A quantitative high throughput screen for small molecules that induce DNA re-replication in SW480 colon adenocarcinoma cells. Further: nearly all actives have a fitted effect of over 55% in size.
Settings: Hoechst DNA content imaging, 48 h; series mostly up to 46.1 µM
Method in brief: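 Per well, 250 cells were exposed to pinned compound for 48 hr. Nuclear DNA was visualised with Hoechst (40 min, 37 C) and total object intensity recorded by fluorescence scanning.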
Potency means the concentration at half of the fitted maximal effect.

Compound	Potency
O=C(NCc1ccccc1CN1CCOCC1)c1ccc(-n2cccn2)cc1	inconclusive: 23.1 µM [activator, partial curve, poor fit]
COc1ccc(-c2cc(C(F)F)n3ncc(C(=O)N4CCCCC4)c3n2)cc1	inconclusive: 29.1 µM [activator, single point]
COc1cccc(C2c3[nH]c4ccccc4c3C[C@H]3C(=O)N(C4CCN(Cc5ccccc5)CC4)CC(=O)N23)c1 (stereo partly specified)	inconclusive: 18.4 µM [activator, single point]
COCCCNCCCOc1ccc(Cl)cc1C(C)(C)C	inconclusive: 29.1 µM [activator, single point]
Cc1ccc(S(=O)(=O)NNC(=S)Nc2c(Cl)cccc2Cl)cc1	inconclusive: 5.17 µM [activator, full curve, poor fit]
Cc1ccc(-n2sc3ccccc3c2=O)cc1S(=O)(=O)N1CCCCC1	inconclusive: 23.1 µM [activator, partial curve, poor fit]
NC1=NC2(CCN(Cc3ccccc3)CC2)n2c(nc3ccccc32)N1	inactive
COc1cccc(-c2nnc(NC(=O)c3ccc(S(=O)(=O)N4CCOCC4)cc3)o2)c1	inconclusive: 20.6 µM [activator, single point]
CC(CCc1ccccc1)NC(=O)CCN1N=C(c2ccccc2)CCC1=O (stereo unspecified)	inactive
Cn1nc(-c2ccc(Cl)cc2)c2cc(C(=O)NCC3CCCO3)sc21 (stereo unspecified)	inconclusive: 14.6 µM [activator, partial curve, poor fit]
CC(C)Nc1nc(Cl)nc(N(C#N)CN2C(=O)c3ccccc3S2(=O)=O)n1	inconclusive: 4.11 µM [activator, full curve, poor fit]
CCOC(=O)Cc1nnc(NC(=O)CSc2nnc3c4ccccc4n(C)c3n2)s1	active: 0.731 µM
CCOc1c(CNCCNC(=O)c2nonc2N)cccc1OC	inactive
CC(Sc1nncs1)C(=O)Nc1ccc2c(c1)OCO2 (stereo unspecified)	inconclusive: 20.6 µM [activator, single point]
CN(C)CCNC(=O)c1cc2c(s1)-c1ccc(Cl)cc1SC2	inconclusive: 20.6 µM [activator, single point]
O=C(CCC(=O)N1CCN(S(=O)(=O)c2ccc(Cl)cc2)CC1)NC1CCCc2ccccc21 (stereo unspecified)	inactive
CC(C)(C)c1ccc(-c2n[nH]c(=S)n2/N=C/c2ccncc2)cc1	inactive
Cc1nn(C)c(C)c1/C=C(/C(=O)C(C)(C)C)n1cncn1	inconclusive: 23.1 µM [activator, single point]
CCN(CC(=O)NCc1ccc(F)cc1)CC(=O)NC1CCCC1	inconclusive: 0.326 µM [activator, partial curve, poor fit]
CCc1ccc(OCC2c3cc(OC)c(OC)cc3CCN2C(=S)NC)cc1 (stereo unspecified)	inconclusive: 23.1 µM [activator, single point]
COC(=O)C(Cc1c[nH]c2ccccc12)NC(=O)C1CC1 (stereo unspecified)	inactive
CCOCCOC(=O)c1[nH]c2c(c1C)C(=O)CC(c1ccc(N(C)C)cc1)C2 (stereo unspecified)	inconclusive: 29.1 µM [activator, single point]
CC(C)(C)C(=O)/C(=C/c1ccc(Cl)cc1)n1cncn1	inconclusive: 2.31 µM [activator, full curve, poor fit]
COc1cccc(/C=C2\Sc3ccc(C(=O)NCc4cccnc4)cc3N(C)C2=O)c1	inconclusive: 29.1 µM [activator, single point]

Compound	Potency
CC(C)(C)c1ccc(/C=C(\C#N)C(=O)Nc2ccccn2)cc1	inactive
COc1cccc(-n2c(C)nc3c(cnn3-c3ccc(Cl)cc3)c2=O)c1	inconclusive: 16.4 µM [activator, single point]
Cc1cc(Cl)ccc1OCC(=O)NC(=S)Nc1ccccc1N1CCOCC1	inactive
CC(=O)c1ccc(N2CCN(C(=O)c3ccc4c(c3)OCO4)CC2)cc1	inactive
O=C(NCc1ccccc1)c1ccc(CN2CCOCC2)cc1	inactive
COC(=O)C1=C(C)N(CCc2c[nH]c3ccccc23)C(=O)/C1=C\N(C)C	inconclusive: 0.231 µM [activator, partial curve, poor fit]
COc1ccc(CC(=O)OCCc2cc3cc(OC)c(OC)cc3c(=O)o2)cc1	inconclusive: 0.82 µM [activator, partial curve, poor fit]
Cc1nn(C)cc1CN(C)C(=O)c1nn2c(c1Cl)NC(c1cccs1)CC2C(F)(F)F (stereo unspecified)	inactive
COc1ccc(Cl)cc1NC(=O)C/C(C)=N/NC(=O)c1ccc(O)cc1	inconclusive: 23.1 µM [activator, partial curve, poor fit]
CCN(CC)CCc1nc(-c2ccccc2)no1	inactive
CCc1ccc(C(=O)Nc2ccc3c(c2)n(C)c(=O)n3C)cc1	inactive
N=c1c(C(=O)NCC2CCCO2)cc2c(=O)n3ccccc3nc2n1Cc1cccnc1 (stereo unspecified)	active: 10.3 µM
COc1cccc(CNS(=O)(=O)c2c(C)[nH]c(C)c2C(=O)N2CCCCC2)c1	inconclusive: 18.4 µM [activator, partial curve, poor fit]
CC1CCCCC1NC(=O)COC(=O)c1ccccn1 (stereo unspecified)	inconclusive: 0.82 µM [activator, full curve, poor fit]
O=C(N/N=C/c1cc(Br)c(O)c(Br)c1)c1cc2c(ccc3ccccc32)o1	inconclusive: 32.6 µM [activator, partial curve, poor fit]
CCCCCCNC1=NCCS1	inactive
O=C(CSc1nnc2ccccn12)NNC(=O)c1ccc(Br)cc1	inactive
COc1cc(C(=O)NCCOc2cc(C)ccc2C(C)C)cc(OC)c1OC	inconclusive: 8.2 µM [activator, partial curve]
COc1ccc(NC(=O)COC(=O)c2ccc3c(c2)OCO3)c(OC)c1	inconclusive: 5.8 µM [activator, full curve, poor fit]
COc1ccc(C2CC(c3ccc4ccccc4c3OC(C)=O)=NN2C(C)=O)cc1 (stereo unspecified)	inconclusive: 23.1 µM [activator, partial curve, poor fit]
O=C(C[n+]1ccc2ccccc2c1)Nc1cc(C(F)(F)F)ccc1Cl	inconclusive: 23.1 µM [activator, partial curve, poor fit]
CCOc1ccc(-c2cc(CCCC(=O)Nc3cccc(OC)c3)no2)cc1	inconclusive: 18.4 µM [activator, single point]
N/C(=N\OC(=O)c1cc(Br)ccc1Cl)c1ccccn1	inconclusive: 20.6 µM [activator, single point]
CCc1ccccc1OCC(=O)Nc1ccc(N2CCCC2)cc1C	inconclusive: 0.731 µM [activator, full curve, poor fit]

5 structures from above, arranged by heavy-atom count, descending.
Compound	Potency
Cc1nn(C)cc1CN(C)C(=O)c1nn2c(c1Cl)NC(c1cccs1)CC2C(F)(F)F (stereo unspecified)	inactive
COc1ccc(C2CC(c3ccc4ccccc4c3OC(C)=O)=NN2C(C)=O)cc1 (stereo unspecified)	inconclusive: 23.1 µM [activator, partial curve, poor fit]
COc1cccc(-n2c(C)nc3c(cnn3-c3ccc(Cl)cc3)c2=O)c1	inconclusive: 16.4 µM [activator, single point]
O=C(CSc1nnc2ccccn12)NNC(=O)c1ccc(Br)cc1	inactive
CCCCCCNC1=NCCS1	inactive

(cont.)

Compound	Potency
CCOc1ccc(N2CC(C(=O)Nc3ccccc3N3CCCC3)CC2=O)cc1 (stereo unspecified)	inconclusive: 29.1 µM [activator, single point]
CCC1=C/C(=C/N(C)c2ccccc2)C(=O)S1	inconclusive: 20.6 µM [activator, single point]
COC(=O)c1ccccc1NC1=C/C(=N\S(=O)(=O)c2ccc(C(=O)O)cc2)c2ccccc2C1=O	active: 2.91 µM
N#Cc1cccc(NC(=O)CSc2cccc[n+]2[O-])c1	inactive
COCC(=O)Nc1ccc2c(c1)OCC(=O)N2Cc1ccc(C)cc1	inactive
CCN(CC)c1ccc2c(C)c(CO)c(=O)oc2c1	active: 13 µM
C=CCOc1ccc2oc(=O)cc(C)c2c1	inactive
CC(=O)Nc1cccc(NC(=O)CSc2ncc(C(=O)Nc3ccccc3)c(=O)n2C)c1	inconclusive: 29.1 µM [activator, single point]
CCc1nnc(NC(=O)c2cccc(S(=O)(=O)N(C)c3ccccc3)c2)s1	inactive
COc1cccc(-c2nnc3n2N=C(c2cccc(Br)c2)CS3)c1	inactive
O=C1CC(N2CCN(S(=O)(=O)c3ccc([N+](=O)[O-])cc3)CC2)C(=O)N1c1ccccc1F (stereo unspecified)	inactive
COC(=O)C(C(=O)Nc1nc2ccccc2s1)C1CCCC1 (stereo unspecified)	inconclusive: 23.1 µM [activator, single point]
Cn1c(N)c(C(=O)CSc2nc3ccccc3[nH]2)c(=O)n(C)c1=O	inactive
Cc1ccc(-n2c(SCC(=O)N3CC(=O)Nc4ccccc43)nc3ccccc3c2=O)cc1	inactive
CC(=O)C1CCC2C3CC(C)C4=CC(=O)CCC4(C)C3C(=O)CC12C (stereo unspecified)	inactive
CC1CCC(NC(=O)c2ccc(COc3ccccc3)o2)CC1 (stereo unspecified)	inconclusive: 29.1 µM [activator, partial curve, poor fit]
COc1ccc(NC(=O)CSc2ccc(-c3sc(C)nc3C)nn2)cc1	inactive
CCN(CC)S(=O)(=O)c1ccc(N2CCCC2)c(NC(=O)Cc2c(F)cccc2Cl)c1	inconclusive: 18.4 µM [activator, single point]
CCCCC1CCc2[nH]nc(C(=O)O)c2C1 (stereo unspecified)	inconclusive: 0.206 µM [activator, full curve, poor fit]
CC(NC(=O)C12CC3CC(CC(C3)C1)C2)C(=O)NN=Cc1ccc([N+](=O)[O-])o1 (stereo unspecified)	inconclusive: 23.1 µM [activator, single point]
O=C(O)/C=C\C(=O)Nc1ccccc1C(=O)NCc1ccccc1	inconclusive: 32.6 µM [activator, partial curve, poor fit]
CCOc1ccc(N2C(=O)/C(=C/c3ccc(C)o3)N(C)C2=S)cc1	inconclusive: 29.1 µM [activator, single point]
O=C(/C=C/c1ccco1)N1CCC(Cc2ccccc2)CC1	inconclusive: 29.1 µM [activator, partial curve, poor fit]
